The series has as its system KM mice. Briefly: Catalepsy assay. Particulars: ratio of ED50 values, mice po. Format: in vivo. How it is done:
Healthy mice of Kunming breed (with half male and half female, (22±2)g) were provided by Qinglongshan Animal Cultivation Center, Nanjing.
Instruments: self-made bar-grabbing apparatus: stainless steel bar in mice box, which was 0.3 cm in diameter and […].
Corresponding solvent double-distilled water was administered intragastrically to the negative control group and the model group, corresponding positive drugs were administered intragastrically to the positive drug groups (a small amount of acetic acid was first added and then double-distilled water was added when dissolving), and corresponding dosages of compounds were administered intragastrically to the compound groups for each dosage, with the volume for intragastric administration as 0.1 ml/10 g. At 30 min, 60 min, 90 min after the intragastric administration, the two forepaws of the mice were gently placed on the bars (which were 20 cm in length, 0.3 cm in diameter, and 5.5 cm above the bench), and the hindpaws of the animals were placed on the bottom of the box. The durations for the mice to maintain the posture with the two forepaws on the bars were recorded, and 30 s of spasticity without moving was considered as the positive response. In the case the forepaws of the mice were not put down persistently, the observation was terminated at 60 s. The numbers of animals with positive response in each of the compound dosage groups were counted.
Take `O=c1ccc2ccc(OCCCCN3CCC(c4noc5cc(F)ccc45)CC3)cc2o1` [Compound 1, 7-(4-(4-(3-(6-fluoro-benzisoxazole)-1-piperidyl)-n-butoxy))-2H-benzopyran-2-one]: the “catalepsy/MK-801 induced high activity” value amounted to 2.35 and the catalepsy/apomorphine induced clambering is listed as 4.41.

On to `Cc1cc(=O)oc2cc(OCCCCN3CCC(c4noc5cc(F)ccc45)CC3)ccc12` [Compound 6, 7-(4-(4-(3-(6-fluoro-benzisoxazole)-1-piperidyl)-n-butoxy))-4-methyl-2H-benzopyran-2-one], for which the “catalepsy/MK-801 induced high activity” value is listed as 2.13 and the catalepsy/apomorphine induced clambering is given as 6.18.

In the case of `Cc1cc(=O)oc2cc(OCCCN3CCC(c4noc5cc(F)ccc45)CC3)ccc12` [Compound 7, 7-(3-(4-(3-(6-fluoro-benzisoxazole)-1-piperidyl)-n-propoxy))-4-methyl-2H-benzopyran-2-one], the “catalepsy/MK-801 induced high activity” value was 5.56 and the catalepsy/apomorphine induced clambering stood at 10.00.

In the case of `Cc1cc(=O)oc2c(Cl)c(OCCCCN3CCC(c4noc5cc(F)ccc45)CC3)ccc12` [Compound 19, 7-(4-(4-(3-(6-fluoro-benzisoxazole)-1-piperidyl)-n-butoxy))-4-methyl-8-chloro-2H-benzopyran-2-one], the “catalepsy/MK-801 induced high activity” value came out at 53.27 and the catalepsy/apomorphine induced clambering was found to be 42.17.

In the case of `Cc1cc(=O)oc2c(C)c(OCCCCN3CCC(c4noc5cc(F)ccc45)CC3)ccc12` [Compound 23, 7-(4-(4-(3-(6-fluoro-benzisoxazole)-1-piperidyl)-n-butoxy))-4,8-dimethyl-2H-benzopyran-2-one], the “catalepsy/MK-801 induced high activity” value is 10.88 and the catalepsy/apomorphine induced clambering amounted to 219.71.

With `O=C1CCc2ccc(OCCCCN3CCN(c4cccc(Cl)c4Cl)CC3)cc2N1` [aripiprazole, reference compound], the “catalepsy/MK-801 induced high activity” value was 20.00 and the catalepsy/apomorphine induced clambering worked out at 11.43.

As for `O=C(CCCN1CCC(O)(c2ccc(Cl)cc2)CC1)c1ccc(F)cc1` [haloperidol, reference compound], the “catalepsy/MK-801 induced high activity” value stood at 4.40 and the catalepsy/apomorphine induced clambering came to 4.89.

As for `OCCOCCN1CCN(C2=Nc3ccccc3Sc3ccccc32)CC1` [quetiapine, reference compound], the “catalepsy/MK-801 induced high activity” value worked out at 79.21 and the catalepsy/apomorphine induced clambering is listed as 396.04.

Regarding `O=C1Cc2cc(CCN3CCN(c4nsc5ccccc45)CC3)c(Cl)cc2N1` [ziprasidone, reference compound], the “catalepsy/MK-801 induced high activity” value amounted to 54.29 and the catalepsy/apomorphine induced clambering was found to be 82.16.
